Assay results from US7108984B2, “Methods of identifying modulators of the FGF receptor” (Mount Sinai School of Medicine, priority 2000, dated 2006).
Part of at least one peptide drawing is inferred or uncertain, most often the ends. Peptide text beside a SMILES is read from it.

Experiments:
[1] = biological target: T1, SNT-1 truncation mutant (residues 11-114) (Homo sapiens, UniProt Q8WU20); experiment: NMR binding studies with SNT-1 truncation mutant; details: versus intact PTB domain
T1 construct: Another SNT-1 truncation mutant (residues 11-114), which ends with β8 shortened by one residue
T1 sequence (Q8WU20 11-114): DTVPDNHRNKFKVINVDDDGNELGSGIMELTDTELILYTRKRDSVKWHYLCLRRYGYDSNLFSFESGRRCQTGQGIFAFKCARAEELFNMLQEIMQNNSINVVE

SNT-1 PTB domain = biological target: T2, SNT-1 PTB domain (Homo sapiens, UniProt Q8WU20); experiment: NMR titration experiments, peptide competition; assay type: binding
T2 construct: His6 (C, cleaved yes); made in house; host or cells: Escherichia coli BL21(DE3)
T2 sequence (Q8WU20 11-140): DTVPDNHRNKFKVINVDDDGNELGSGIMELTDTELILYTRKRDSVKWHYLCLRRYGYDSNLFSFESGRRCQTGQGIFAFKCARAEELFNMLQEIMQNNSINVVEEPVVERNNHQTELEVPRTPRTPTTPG

SMILES: CC[C@H](C)[C@H](NC(=O)[C@H](CO)NC(=O)[C@H](CCCCN)NC(=O)[C@H](C)NC(=O)[C@H](CC(C)C)NC(=O)[C@H](CCCCN)NC(=O)[C@H](Cc1c[nH]cn1)NC(=O)[C@@H](NC(=O)[C@H](C)NC(=O)[C@H](CCSC)NC(=O)[C@H](CCC(N)=O)NC(=O)[C@H](CO)NC(=O)[C@@H](N)Cc1c[nH]cn1)C(C)C)C(=O)N1CCC[C@H]1C(=O)N[C@@H](CC(C)C)C(=O)N[C@@H](CCCNC(=N)N)C(=O)N[C@@H](CCCNC(=N)N)C(=O)N[C@@H](CCC(N)=O)C(=O)N[C@H](C(=O)N[C@H](C(=O)N[C@H](C(=O)N[C@@H](CO)C(=O)O)C(C)C)[C@@H](C)O)C(C)C [hFGFR1 peptide, HSQMAVHKLAKSIPLRRQVTVS] (H-HSQMAVHKLAKSIPLRRQVTVS-OH; N-terminus and C-terminus assumed)
- binding to SNT-1 truncation mutant (residues 11-114), β8 shortened by one residue [1]: markedly reduced binding
- competition for binding to the PTB domain (SNT-1 PTB domain): compete for binding
